Reference: patent CN1510052A
Results are given in words; binding and its absence hold for the method and conditions named. Some entries that bind do so weakly or less than the wild type.

By UniProt entry, the sequences of proteins in these tests, tags left out. Residues count along the entry.
UniProt P01375, residues 77-233: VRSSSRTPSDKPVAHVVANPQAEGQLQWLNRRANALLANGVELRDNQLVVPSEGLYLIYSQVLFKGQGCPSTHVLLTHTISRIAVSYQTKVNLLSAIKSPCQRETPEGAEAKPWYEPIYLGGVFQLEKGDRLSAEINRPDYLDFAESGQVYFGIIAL

Tests used:
[1] = target: 重组人TNF(rhTNF)抗原 (human) (UniProt P01375); assay: Western blot with soluble scFv from periplasmic extract
[2] = target: 重组人TNF(rhTNF)抗原 (human) (UniProt P01375); assay: phage ELISA: rhTNF coated on plate, scFv displayed on phage, HRP anti-M13 detection

B1: 克隆2 人源性单链抗体(scFv) (scFv)
scFv: MANVQLVQSGAEVKKPGESLKISCKGSGYSFTSYWIGWVRQMPGKGLEWMGIIYPGDSDTRYSPSFQGQVTISADKSISTAYLQWSSLKASDTAMYYCASHGWGMDVWGQGTLVTVSSGGGGSGGGGSGGGGSAAVLTQPSSVSGAPGQRVTISCTGSSSNIGAGYDVHWYQQLPGTAPKLLIYGNSNRPSGVPDRFSGSKSGTSASLAITGLAAEDEADYYCQSYDSSLSGSVFGGGTKLTVL
For B1, the binding [1] was “binds” and the binding [2] was “binds”.
